From IntAct's records for PubMed 25910212 come the findings set out here.

First the molecules themselves.
B1: Adiponectin (Homo sapiens), Q15848 (parent)
chain: MLLLGAVLLLLALPGHDQETTTQGPGVLLPLPKGACTGWMAGIPGHPGHNGAPGRDGRDGTPGEKGEKGDPGLIGPKGDIGETGVPGAEGPRGFPGIQGRKGEPGEGAYVYRSAFSVGLETYVTIPNMPIRFTKIFYNQQNHYDGSTGKFHCNIPGLYYFAYHITVYMKDVKVSLFKKDKAMLFTYDQYQENNVDQASGSVLLHLEVGDQVWLQVYGEGERNGLYADNDNDSTFTGFLLYHDTN

The assay covers variants of B1. The following applies: with bni3l_human BNIP3L.
R112C: the “effect of a mutation on the interaction” value is listed as “with no effect”.
